These are yes or no findings as the source states them, for the method shown. Binding seen in cells or lysates may run through a third protein. Binding can be weak; no strength is given. Sequences can lack the tags named with a protein.
Target: FLAG-tagged Vps13B (not stated (human or mouse cDNA cloned)) (UniProt Q7Z7G8)
Test: co-IP; lysates of cells expressing Vps13B-FLAG and GFP-Stx13, GFP-ΔN-Stx13 or GFP-Stx13-Stx6 chimera; immunoprecipitated with anti-FLAG antibody, immunoblot for GFP

Chains of the proteins cited; added tags and fusions are not shown. Lines headed by an entry give the natural chain unless they say otherwise; changes in a name come on top.
UniProt Q7Z7G8: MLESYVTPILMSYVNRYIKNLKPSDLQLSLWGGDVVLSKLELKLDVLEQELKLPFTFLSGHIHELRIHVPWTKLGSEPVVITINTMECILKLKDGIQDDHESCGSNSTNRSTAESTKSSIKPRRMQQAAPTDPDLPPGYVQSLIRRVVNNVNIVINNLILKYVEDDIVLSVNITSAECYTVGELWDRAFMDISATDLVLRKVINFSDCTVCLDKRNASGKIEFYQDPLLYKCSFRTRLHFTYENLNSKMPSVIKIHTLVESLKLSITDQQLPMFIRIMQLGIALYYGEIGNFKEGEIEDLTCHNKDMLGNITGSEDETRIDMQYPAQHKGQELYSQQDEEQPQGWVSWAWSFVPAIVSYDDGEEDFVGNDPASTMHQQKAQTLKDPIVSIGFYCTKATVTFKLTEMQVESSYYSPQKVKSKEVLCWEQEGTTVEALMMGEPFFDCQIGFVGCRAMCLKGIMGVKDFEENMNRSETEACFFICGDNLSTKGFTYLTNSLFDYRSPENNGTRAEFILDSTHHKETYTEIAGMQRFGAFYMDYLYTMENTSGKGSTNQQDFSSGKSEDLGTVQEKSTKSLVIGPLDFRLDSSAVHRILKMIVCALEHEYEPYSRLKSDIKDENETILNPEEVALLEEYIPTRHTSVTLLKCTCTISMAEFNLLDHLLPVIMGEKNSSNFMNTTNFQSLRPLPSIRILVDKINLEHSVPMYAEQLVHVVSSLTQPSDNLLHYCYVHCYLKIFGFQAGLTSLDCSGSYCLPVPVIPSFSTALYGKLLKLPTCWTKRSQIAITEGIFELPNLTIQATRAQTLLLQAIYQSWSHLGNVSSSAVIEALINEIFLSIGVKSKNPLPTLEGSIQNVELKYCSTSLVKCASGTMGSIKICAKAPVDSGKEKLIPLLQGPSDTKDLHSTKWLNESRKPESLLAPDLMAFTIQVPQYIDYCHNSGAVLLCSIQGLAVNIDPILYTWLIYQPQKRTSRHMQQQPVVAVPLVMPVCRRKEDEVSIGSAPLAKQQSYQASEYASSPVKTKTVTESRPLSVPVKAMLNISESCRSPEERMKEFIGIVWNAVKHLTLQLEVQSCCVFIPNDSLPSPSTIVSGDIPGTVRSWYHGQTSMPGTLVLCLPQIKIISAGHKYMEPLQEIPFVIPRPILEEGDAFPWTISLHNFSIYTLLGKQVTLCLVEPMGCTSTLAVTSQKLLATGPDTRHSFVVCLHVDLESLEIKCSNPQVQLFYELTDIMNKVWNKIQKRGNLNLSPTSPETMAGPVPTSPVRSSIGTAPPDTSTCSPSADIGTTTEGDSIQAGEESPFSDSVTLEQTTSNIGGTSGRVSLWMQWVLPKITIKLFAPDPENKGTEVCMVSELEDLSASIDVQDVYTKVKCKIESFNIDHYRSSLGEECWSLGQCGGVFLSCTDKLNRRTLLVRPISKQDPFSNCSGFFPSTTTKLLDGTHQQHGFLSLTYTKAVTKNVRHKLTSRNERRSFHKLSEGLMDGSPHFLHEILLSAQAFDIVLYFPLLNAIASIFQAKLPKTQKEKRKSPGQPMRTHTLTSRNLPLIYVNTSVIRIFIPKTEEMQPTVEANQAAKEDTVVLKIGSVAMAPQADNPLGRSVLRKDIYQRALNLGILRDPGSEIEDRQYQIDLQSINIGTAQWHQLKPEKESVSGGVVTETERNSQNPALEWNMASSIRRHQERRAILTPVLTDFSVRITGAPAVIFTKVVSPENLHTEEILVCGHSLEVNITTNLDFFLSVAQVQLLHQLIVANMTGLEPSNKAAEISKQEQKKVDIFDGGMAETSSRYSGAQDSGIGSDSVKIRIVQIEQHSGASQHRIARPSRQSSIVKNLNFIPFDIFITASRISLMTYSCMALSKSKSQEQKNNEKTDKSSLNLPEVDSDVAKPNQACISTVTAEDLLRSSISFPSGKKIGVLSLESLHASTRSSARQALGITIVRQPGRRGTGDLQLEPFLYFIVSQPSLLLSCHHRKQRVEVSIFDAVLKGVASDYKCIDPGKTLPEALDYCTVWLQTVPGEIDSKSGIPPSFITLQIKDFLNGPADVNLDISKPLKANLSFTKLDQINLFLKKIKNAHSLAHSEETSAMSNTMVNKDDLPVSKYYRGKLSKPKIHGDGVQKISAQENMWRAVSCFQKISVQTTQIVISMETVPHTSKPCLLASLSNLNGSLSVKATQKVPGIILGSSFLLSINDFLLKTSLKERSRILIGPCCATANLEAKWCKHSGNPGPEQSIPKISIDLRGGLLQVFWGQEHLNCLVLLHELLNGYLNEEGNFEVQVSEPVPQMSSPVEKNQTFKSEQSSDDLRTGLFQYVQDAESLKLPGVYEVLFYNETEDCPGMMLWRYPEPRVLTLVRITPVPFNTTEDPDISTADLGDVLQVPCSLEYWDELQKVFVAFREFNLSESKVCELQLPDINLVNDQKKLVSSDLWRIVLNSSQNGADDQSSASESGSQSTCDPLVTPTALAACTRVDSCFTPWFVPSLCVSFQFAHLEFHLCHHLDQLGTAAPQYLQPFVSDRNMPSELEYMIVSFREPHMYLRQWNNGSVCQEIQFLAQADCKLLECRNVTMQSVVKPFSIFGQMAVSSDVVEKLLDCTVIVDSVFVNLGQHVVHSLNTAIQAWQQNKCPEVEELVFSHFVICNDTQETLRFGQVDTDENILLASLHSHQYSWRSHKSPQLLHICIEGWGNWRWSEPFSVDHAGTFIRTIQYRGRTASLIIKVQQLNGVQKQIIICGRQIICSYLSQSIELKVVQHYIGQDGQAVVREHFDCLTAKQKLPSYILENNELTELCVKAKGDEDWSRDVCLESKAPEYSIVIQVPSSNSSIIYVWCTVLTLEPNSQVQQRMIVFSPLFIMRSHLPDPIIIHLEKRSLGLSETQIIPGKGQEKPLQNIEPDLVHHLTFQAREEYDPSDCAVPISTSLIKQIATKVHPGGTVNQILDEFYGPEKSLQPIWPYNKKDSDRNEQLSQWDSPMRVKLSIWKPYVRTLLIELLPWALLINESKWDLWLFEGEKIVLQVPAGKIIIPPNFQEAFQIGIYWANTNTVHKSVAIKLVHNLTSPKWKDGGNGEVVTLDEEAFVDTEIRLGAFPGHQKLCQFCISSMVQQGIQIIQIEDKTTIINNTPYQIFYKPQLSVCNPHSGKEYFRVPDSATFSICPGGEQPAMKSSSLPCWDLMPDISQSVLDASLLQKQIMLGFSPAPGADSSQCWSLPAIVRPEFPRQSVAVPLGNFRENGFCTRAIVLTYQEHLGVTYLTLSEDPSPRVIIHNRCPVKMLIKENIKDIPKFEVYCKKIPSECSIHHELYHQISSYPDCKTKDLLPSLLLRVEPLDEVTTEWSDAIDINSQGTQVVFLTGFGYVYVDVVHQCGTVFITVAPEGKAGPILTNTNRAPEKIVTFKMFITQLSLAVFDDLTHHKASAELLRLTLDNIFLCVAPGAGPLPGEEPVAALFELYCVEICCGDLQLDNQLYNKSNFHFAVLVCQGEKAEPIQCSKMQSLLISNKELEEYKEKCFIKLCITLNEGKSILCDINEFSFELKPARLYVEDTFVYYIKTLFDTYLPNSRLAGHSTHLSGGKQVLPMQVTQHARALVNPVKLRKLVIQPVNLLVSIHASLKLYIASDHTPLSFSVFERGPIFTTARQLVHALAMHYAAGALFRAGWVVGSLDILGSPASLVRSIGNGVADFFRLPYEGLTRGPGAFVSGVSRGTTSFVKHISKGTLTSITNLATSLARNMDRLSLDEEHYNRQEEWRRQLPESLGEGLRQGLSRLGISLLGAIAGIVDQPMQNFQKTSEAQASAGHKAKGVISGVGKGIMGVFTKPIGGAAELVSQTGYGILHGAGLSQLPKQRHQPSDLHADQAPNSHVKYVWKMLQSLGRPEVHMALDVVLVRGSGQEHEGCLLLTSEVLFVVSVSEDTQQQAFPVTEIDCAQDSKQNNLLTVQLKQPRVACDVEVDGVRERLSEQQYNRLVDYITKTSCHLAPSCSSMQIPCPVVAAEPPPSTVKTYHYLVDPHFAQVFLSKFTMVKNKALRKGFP

GFP-ΔN-Stx13 (Stx13 with the N-terminal domain truncated) (from UniProt G3V7P1) (domain or fragment)
binding: no binding

B1: GFP-tagged Stx13 (protein, UniProt G3V7P1 1-274)
chain: MSYGPLDMYRNPGPSGPQPRDFNSIIQTCSGNIQRISQATAQIKNLMSQLGTKQDSSKLQENLQQFQHSTNQLAKETNELLKELGSLPLPLSASEQRQQKLQKERLMNDFSSALNNFQVVQRKVSEKEKESIARARAGSRLSAEDRQREEQLVSFDSHEEWNQMQSQEEEAAITEQDLELIKERETAIQQLEADILDVNQIFKDLAMMIHDQGDLIDSIEANVESSEVHVERASDQLQRAAYYQKKSRKKMCILVLVLSVIVTVLVVVIWVASK
binding: binds
